## Results from one PubChem assay

Source: PubChem BioAssay AID1919867 (NCATS, 2023).

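A 48 h survival test on one myeloma line, where glow from ATP reports how many living cells remain.
Each drug ran as a dilution series reaching roughly 46 µM at the top, and up to 92 µM in some cases.
The number is the AC50, the concentration giving half the fitted maximal effect; a lower value means a more potent drug.
Calls come from the curve class and fit; inconclusive covers weak, poorly fitted or opposite-direction curves, scored 1 to 39.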

Values are in µM.
All entries here are filed as inconclusive.
These entries are mostly ones the record files as inconclusive; other results of the assay are not listed here.
A potency from a partial, single-point or poor curve is only a rough figure.
The first word of each remark tells which way the curve ran; it can be opposite to the aim of the assay.
Activity scores are not listed here.

SMILES	potency (µM)	curve
CN1CCN(c2c(F)cc3c(=O)c(C(=O)O)cn4c3c2OCN4C)CC1	0.0132	rising, full curve, poor fit
Cc1ccc(CN2CCNCC2)cc1NC(=O)CNc1ccc(F)c(F)c1	0.0066	rising, full curve, poor fit
Nc1ccn([C@H]2CC[C@@H](CO)O2)c(=O)n1	18.65	cytotoxic, partial curve, poor fit
CN(C)CC[C@H](c1ccc(Cl)cc1)c1ccccn1	3.722	cytotoxic, full curve, poor fit
C[C@@H]1CN(c2c(F)c(N)c3c(=O)c(C(=O)O)cn(C4CC4)c3c2F)C[C@H](C)N1	1.444	cytotoxic, full curve, poor fit
Nc1cccc(-c2cc3c(Oc4cccc(O)c4)ncnc3[nH]2)c1	16.63	cytotoxic, partial curve, poor fit
c1ccc2c(CN3CCNCC3)cccc2c1	0.0033	cytotoxic, full curve, poor fit
CCCCOc1ccc(CC(=O)NO)cc1	0.2348	cytotoxic, full curve, poor fit
C[C@H]1[C@@H](OC(=O)CCC(=O)O)O[C@@H]2O[C@@]3(C)CC[C@@H]4[C@H](C)CC[C@@H]1[C@@]24OO3	3.722	cytotoxic, full curve, poor fit
N#Cc1ccc(COC[C@H]2O[C@@H](n3c(NCc4ccc(Cl)c(Cl)c4)nc4c(N)ncnc43)[C@@H](O)[C@@H]2O)cc1	18.65	cytotoxic, partial curve, poor fit
CN(C)CCc1c[nH]c2ccc(CS(=O)(=O)N3CCCC3)cc12	6.619	cytotoxic, partial curve, poor fit
Cc1ccccc1N1C(=O)c2cc(S(N)(=O)=O)c(Cl)cc2NC1C (configuration not stated)	6.619	cytotoxic, full curve, poor fit
Cc1ccc([N+](=O)[O-])cc1S(=O)(=O)N(C)N=Cc1cnc2ccc(Br)cn12	0.0053	cytotoxic, full curve, poor fit
COc1cc(NS(=O)(=O)c2ccc(N)cc2)nc(OC)n1	7.427	cytotoxic, partial curve, poor fit
CC(C)(C)c1nc2c3cc[nH]c(=O)c3c3cc(F)ccc3c2[nH]1	0.8333	cytotoxic, full curve, poor fit

For reference, 2 entries once more:

| SMILES | potency (µM) | curve |
|---|---|---|
| `C[C@@H]1CN(c2c(F)c(N)c3c(=O)c(C(=O)O)cn(C4CC4)c3c2F)C[C@H](C)N1` | 1.444 | cytotoxic, full curve, poor fit |
| `Cc1ccccc1N1C(=O)c2cc(S(N)(=O)=O)c(Cl)cc2NC1C` (configuration not stated) | 6.619 | cytotoxic, full curve, poor fit |